The subject of this experiment is Mia PaCa-2 cells. In words: In vitro antiproliferative assay. The conditions noted are these: Homo sapiens, MIA PaCa-2, 72 h, read-out: Mia PaCa-2 (IC50), CCK8 method, 72 h. In kind it is cell-based. (In general: Formazan colour is commonly taken as a measure of viable cells.)

For the compound `O=C(CCCN1CCC2(CC1)C(=O)NCN2c1ccccc1)c1ccc(F)cc1` [Compound 9, Spiperone, reference compound], the IC50 (commonly the concentration at which inhibition is half-maximal) was greater than 100 µM.

The values above are taken from publication PMC8799878 (Acta Pharmaceutica Sinica. B, 2021).
